The text below walks through data of PMC6381116.

For experiment [1], the target named is T1, HA:AGO10 (Arabidopsis thaliana) (UniProt Q9XGW1).
T1 sequence: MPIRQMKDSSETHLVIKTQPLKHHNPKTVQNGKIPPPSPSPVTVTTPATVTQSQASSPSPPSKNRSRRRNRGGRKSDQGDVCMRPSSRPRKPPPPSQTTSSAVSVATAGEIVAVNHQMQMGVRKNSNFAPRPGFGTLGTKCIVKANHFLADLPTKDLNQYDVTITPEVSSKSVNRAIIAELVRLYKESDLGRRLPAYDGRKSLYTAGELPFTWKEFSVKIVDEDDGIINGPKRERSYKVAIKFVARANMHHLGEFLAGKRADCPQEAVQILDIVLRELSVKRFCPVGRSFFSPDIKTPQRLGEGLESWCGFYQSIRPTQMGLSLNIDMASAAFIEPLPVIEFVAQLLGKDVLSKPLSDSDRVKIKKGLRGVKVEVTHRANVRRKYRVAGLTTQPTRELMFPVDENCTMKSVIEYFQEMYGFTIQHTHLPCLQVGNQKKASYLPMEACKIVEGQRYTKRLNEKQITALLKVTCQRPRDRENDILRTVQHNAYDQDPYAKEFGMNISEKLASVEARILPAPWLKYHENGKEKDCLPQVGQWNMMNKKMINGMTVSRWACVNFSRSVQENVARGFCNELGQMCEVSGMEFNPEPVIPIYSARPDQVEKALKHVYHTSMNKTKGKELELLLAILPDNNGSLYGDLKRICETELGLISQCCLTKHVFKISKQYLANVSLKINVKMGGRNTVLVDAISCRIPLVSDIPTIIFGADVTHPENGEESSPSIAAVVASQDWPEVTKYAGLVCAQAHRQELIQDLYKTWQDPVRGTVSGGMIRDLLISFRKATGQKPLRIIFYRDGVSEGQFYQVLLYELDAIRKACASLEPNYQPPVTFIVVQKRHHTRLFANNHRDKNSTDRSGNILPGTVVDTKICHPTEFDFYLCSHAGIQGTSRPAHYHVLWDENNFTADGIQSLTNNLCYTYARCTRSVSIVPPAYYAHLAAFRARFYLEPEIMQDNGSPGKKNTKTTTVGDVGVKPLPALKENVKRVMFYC
Briefly: co-IP; transient co-expression in N. benthamiana in the presence of PRMT5 (Supplementary Fig. 11a, 11c; Fig. 4b).

The target of experiment [2] is T2, HA:Δ170AGO2 (Arabidopsis thaliana) (UniProt Q9SHF3).
T2 sequence: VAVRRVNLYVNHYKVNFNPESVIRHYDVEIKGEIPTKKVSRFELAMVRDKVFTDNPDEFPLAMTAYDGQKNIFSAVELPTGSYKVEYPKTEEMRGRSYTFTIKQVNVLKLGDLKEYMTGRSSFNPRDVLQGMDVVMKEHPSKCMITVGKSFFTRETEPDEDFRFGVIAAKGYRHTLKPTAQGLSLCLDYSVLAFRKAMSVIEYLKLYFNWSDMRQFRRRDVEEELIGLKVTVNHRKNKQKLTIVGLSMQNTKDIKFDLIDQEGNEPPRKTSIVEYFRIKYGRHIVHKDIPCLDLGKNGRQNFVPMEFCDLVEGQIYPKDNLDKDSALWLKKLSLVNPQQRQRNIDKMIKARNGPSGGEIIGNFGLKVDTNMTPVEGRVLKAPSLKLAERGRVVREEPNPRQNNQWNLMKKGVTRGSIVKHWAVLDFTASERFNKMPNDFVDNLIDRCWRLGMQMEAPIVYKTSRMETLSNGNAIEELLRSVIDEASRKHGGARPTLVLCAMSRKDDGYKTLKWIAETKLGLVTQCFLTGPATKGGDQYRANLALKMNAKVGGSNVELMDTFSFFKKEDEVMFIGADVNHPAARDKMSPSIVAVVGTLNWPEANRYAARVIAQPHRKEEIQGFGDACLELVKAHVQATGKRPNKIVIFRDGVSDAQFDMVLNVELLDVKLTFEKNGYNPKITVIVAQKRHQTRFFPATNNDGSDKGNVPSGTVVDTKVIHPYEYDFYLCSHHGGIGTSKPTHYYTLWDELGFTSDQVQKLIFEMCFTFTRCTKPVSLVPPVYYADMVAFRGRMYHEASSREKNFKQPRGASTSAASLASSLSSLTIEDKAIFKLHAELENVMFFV
The description is as above.

No constants are given. Whether binding was seen depends on the method and setting. Binding seen in cells or lysates may run through a third protein. Sequences can lack the tags named with a protein.

B1: c-Myc-tagged TSN2 (protein, UniProt Q9FLT0 1-985)
chain: MATGAATENQWLKGRVKAVTSGDCLVITALTHNRAGPPPEKTITLSSLMAPKMARRGGIDEPFAWESREFLRKLCIGKEVAFKVDYKVEAIAGREFGSVYLGNENLAKLVVQNGWAKVRRPGQQNQDKVSPYIAELEQLEEQAQQEGFGRWSKVPGAAEASIRNLPPSAVGDSGNFDAMGLLAASKGKPMEGIVEQVRDGSTIRVYLLPEFQFVQVFVAGLQAPSMGRRQSTQEAVVDPDVTATSNGDASAETRGPLTTAQRLAASAASSVEVSSDPFAMEAKYFTELRVLNRDVRIVLEGVDKFNNLIGSVYYSDGDTVKDLGLELVENGLAKYVEWSANMLDEEAKKKLKATELQCKKNRVKMWANYVPPASNSKAIHDQNFTGKVVEVVSGDCLVVADDSIPFGSPMAERRVCLSSIRSPKMGNPRREEKPAPYAREAKEFLRQKLIGMEVIVQMEYSRKISPGDGVTTSGAGDRVMDFGSVFLPSPTKGDTAVAAAATPGANIAELIISRGLGTVVRHRDFEERSNHYDALLAAEARAIAGKKNIHSAKDSPALHIADLTVASAKKAKDFLPSLQRINQISAVVEYVLSGHRFKLYIPKESCSIAFAFSGVRCPGRGEPYSEEAIALMRRKIMQRDVEIVVENVDRTGTFLGSMWEKNSKTNAGTYLLEAGLAKMQTGFGADRIPEAHILEMAERSAKNQKLKIWENYVEGEEVVNGSSKVETRQKETLKVVVTEVLGGGRFYVQTVGDQKVASIQNQLAALSLKDAPIIGSFNPKKGDIVLAQFSLDNSWNRAMIVNGPRGAVQSPEEEFEVFYIDYGNQEIVPYSAIRPVDPSVSSAPGLAQLCRLAYIKVPGKEEDFGRDAGEYLHTVTLESGKEFRAVVEERDTSGGKVKGQGTGTELVVTLIAVDDEISVNAAMLQEGIARMEKRRRWEPKDKQAALDALEKFQDEARKSRTGIWEYGDIQSDDEDNVPVRKPGRG
As to B1, the binding entry in experiment [1] and in experiment [2] was “no binding” in each case.

B2: c-Myc-tagged TSN1 (protein, UniProt Q8VZG7 1-991)
chain: MATGAENQWLKGRVKAVTSGDCLVITALSHNRAGPPPEKTITFSSLMAPKMARRGGIDEPFAWESKEFLRKLCIGKEVAFKVDYKVEAIAGREFGSVFLGNENLAKLVVKTGWAKVREPGQQNQDKVSPYIKELLQLEELAKQEGYGRWSKVPGAAEASIRNLPPSAIGDSAGFDAMGLLAANKGKPMEGIVEQVRDGSTIRVYLLPEFQFVQVFVAGVQAPSMGRRTTNGSVVETVPDEPNGDVSAESRGPLTTAQRLAASAASSVEVSSDPFATEAKYFTEHRVLSRDVRIVLEGVDKFNNLIGSVHYSDGETVKDLGLELVENGLAKFVEWSANMMEEEAKKKLKAAELQCKKDKVKMWANYVPPATNSKAIHDQNFTGKVVEVVSGDCLIVADDAVPFGSPAAERRVCLSSIRSPKMGNPRREEKPAPYAREAREFLRQRLIGKQVIVQMEYSRKVTQGDGPTTSGAADRFMDFGSVFLPSAAKADSDEVTAPPAAAIAGSQPVGVNIAELVLVRGFGNVVRHRDFEERSNHYDALLAAEARALAGKKGIHSAKESPAMHITDLTVSAAKKAKDFLPSLQRIRRIPAVVEYVLSGHRFKLYIPKITCSIAFSFSGVRCPGRGEPYSEEAISVMRRRIMQRDVEIEVETVDRTGTFLGSMWESRTNVATVLLEAGLAKMQTSFGADRIAEAHLLEQAERSAKNQKLKIWENYVEGEEVSNGNTNTVETRQKETLKVVVTEVLGGGRFYVQSAGDQKIASIQNQLASLSIKDAPIIGSFNPKRGDIVLAQFSLDNSWNRAMIVTAPRAAVQSPDEKFEVFYIDYGNQETVPYSAIRPIDPSVSAAPGLAQLCRLAYIKVPSLEDDFGPEAGEYLHTVTLGSGKEFKAVIEERDTSGGKVKGQGTGTEFVVTLIAVDDEISVNAAMLQEGIARMEKRQKWGHKGKQAALDALEKFQEEARKSRIGIWQYGDIESDDEDTGPARKPAGGRR
Take B2: the binding result in experiment [1] and in experiment [2] was “no binding” each time.
